Reference: US20190256588A1
No constants are given. Whether binding was seen depends on the method and setting. Some entries that bind do so weakly or less than the wild type.

Amino acid sequences for entries named in this document (tags omitted). Residues count along the entry.
UniProt Q16552, residues 24-155: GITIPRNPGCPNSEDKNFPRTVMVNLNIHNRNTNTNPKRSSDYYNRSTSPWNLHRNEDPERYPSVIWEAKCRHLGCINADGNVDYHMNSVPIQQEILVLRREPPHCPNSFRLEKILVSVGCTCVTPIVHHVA

Target: recombinant human IL-17A (human) (UniProt Q16552)
Assay: ELISA, human IL-17A coated on plate, hybridoma culture supernatant

- binding: binds
B1: monoclonal antibody secreted by Clone No. 88 (antibody, V domains shown)
VH: DVQVQESGPGLVKPSQSLSLTCTVTGNSITSYYAWNWIRQFPGNKLEWMGYITYSGTTSYNPSLKSRISITRDTSKNQFFLQLNSVTTEDTATYYCAREEYDDIYAVDYWGQGTSVTVSS
VL: IIVMTQTPLSLPVSLGDQASISCRSSQSLVHSNGNTYLHWYLQKPGQSPKLLIYKVYNRFSGVPDRFSGSGSGTDFTLKISRVEAEDLGVYFCSQSTHFPTFGGGTKLEIK
